According to patent US20150004213A1, “Vaginal Drug Delivery Devices and Manufacturing Methods” (VIMAC Ventures LLC, priority 2011, published 2015):
At least one structure is not confirmed: it was looked up by name or label, or the drawing left a doubt.

Experiment: Release kinetics of drug delivery devices having different formulations (FIG. 9, estradiol)
Assay type: physicochemical
Conditions: devices with different excipients, drug Estradiol in EVA

For `C[C@]12CC[C@@H]3c4ccc(O)cc4CC[C@H]3[C@@H]1CC[C@@H]2O` [Estradiol], the release kinetics was “pseudo zero order release kinetics”.
